From PMC4725338 come the findings set out here.

Protein sequences, listed by entry. Tags and fused reporters are not part of them. Lines headed by an entry give the natural chain unless they say otherwise; changes in a name come on top.
UniProt P05556: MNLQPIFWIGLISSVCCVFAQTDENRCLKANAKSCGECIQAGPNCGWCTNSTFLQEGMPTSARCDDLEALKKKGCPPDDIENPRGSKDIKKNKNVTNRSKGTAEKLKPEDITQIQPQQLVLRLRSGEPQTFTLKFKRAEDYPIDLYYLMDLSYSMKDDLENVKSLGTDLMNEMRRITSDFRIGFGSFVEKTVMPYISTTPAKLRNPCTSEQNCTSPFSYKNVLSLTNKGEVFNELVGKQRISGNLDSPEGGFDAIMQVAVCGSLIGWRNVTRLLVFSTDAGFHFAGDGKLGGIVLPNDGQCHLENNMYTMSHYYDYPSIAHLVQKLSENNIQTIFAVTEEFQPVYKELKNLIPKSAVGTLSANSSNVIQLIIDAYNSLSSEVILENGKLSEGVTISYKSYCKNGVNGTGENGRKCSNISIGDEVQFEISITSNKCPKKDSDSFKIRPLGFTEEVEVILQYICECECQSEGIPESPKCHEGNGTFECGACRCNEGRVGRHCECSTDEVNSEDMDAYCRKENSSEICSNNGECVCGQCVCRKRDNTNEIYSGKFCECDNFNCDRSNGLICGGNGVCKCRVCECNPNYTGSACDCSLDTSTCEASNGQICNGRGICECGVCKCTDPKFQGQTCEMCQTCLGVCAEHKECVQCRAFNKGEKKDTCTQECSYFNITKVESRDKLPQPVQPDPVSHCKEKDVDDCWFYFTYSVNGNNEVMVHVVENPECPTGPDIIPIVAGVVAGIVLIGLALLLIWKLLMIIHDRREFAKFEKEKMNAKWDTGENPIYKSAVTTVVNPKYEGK

These are yes or no findings as the source states them, for the method shown. Binding seen in cells or lysates may run through a third protein. Some results given as binding are weak or reduced against the parent protein; the word gives no strength. Where a sequence is shown, tags or fusion partners need not be part of it.

This assay deals with T1, His-Myc-tagged Crim1-FL (full-length mouse cysteine-rich motor neuron 1) (mouse) (UniProt Q9JLL0).
T1 sequence: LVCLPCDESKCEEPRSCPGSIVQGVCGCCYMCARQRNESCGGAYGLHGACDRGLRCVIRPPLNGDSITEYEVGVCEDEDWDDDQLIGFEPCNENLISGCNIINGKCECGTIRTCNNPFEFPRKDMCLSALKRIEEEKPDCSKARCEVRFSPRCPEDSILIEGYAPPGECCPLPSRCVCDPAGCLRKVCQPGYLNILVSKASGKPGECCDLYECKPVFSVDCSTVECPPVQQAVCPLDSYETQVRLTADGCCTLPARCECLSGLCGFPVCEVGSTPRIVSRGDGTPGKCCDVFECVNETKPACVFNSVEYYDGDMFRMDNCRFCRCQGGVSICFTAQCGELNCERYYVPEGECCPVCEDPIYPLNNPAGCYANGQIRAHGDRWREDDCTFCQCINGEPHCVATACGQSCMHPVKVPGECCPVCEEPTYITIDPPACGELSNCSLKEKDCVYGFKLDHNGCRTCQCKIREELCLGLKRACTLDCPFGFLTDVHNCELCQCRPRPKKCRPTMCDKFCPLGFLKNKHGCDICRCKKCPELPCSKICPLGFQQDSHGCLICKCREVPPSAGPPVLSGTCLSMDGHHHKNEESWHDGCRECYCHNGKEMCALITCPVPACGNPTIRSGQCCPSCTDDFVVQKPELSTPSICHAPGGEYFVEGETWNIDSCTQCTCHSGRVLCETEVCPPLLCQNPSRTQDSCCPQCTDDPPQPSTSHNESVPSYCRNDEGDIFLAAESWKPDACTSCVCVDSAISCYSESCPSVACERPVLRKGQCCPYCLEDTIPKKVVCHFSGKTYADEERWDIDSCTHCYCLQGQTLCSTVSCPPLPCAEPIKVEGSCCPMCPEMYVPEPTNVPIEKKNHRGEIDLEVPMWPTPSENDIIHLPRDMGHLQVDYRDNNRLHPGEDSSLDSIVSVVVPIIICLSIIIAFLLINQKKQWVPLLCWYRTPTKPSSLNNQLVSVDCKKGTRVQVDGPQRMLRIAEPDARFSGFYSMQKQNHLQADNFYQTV
As to the kind of experiment: co-IP; C-terminal His- and Myc-tagged mouse Crim1 expressed in HEK 293T cells for 48 h; lysate (50 mM NaH2PO4, 300 mM NaCl, 10 mM imidazole, 0.5% Triton X-100, pH 8.0) incubated with Ni-NTA resin at 4°C for 2 h to precipitate His-Myc-Crim1; blotted with anti-Myc or anti-β1 integrin; empty vector as negative control.

With “β1 integrin (from UniProt P05556 21-798) (receptor)”, the binding result is “binds”.
